Tested on: human platelets
Assay: Loading of platelets with trehalose, quantified by anthrone reaction
Assay type: cell-based
Conditions: 37° C., incubation period of 4 hours, time course; external concentration 25 mM
Procedure: Loading of Platelets with Trehalose. Washed platelets in a concentration of 1-2 10^9 platelets/ml were incubated at various temperatures in the presence of 1-20 mg/ml trehalose. Incubation temperatures were chosen from 4° C. to 37° C. Incubation times were varied from 0.5 to 4 hours. After incubation the platelet solutions were washed in buffer A two times (by centrifugation at 14,000 RPM for 20 s in a table centrifuge). Platelet counts were obtained on a coulter counter. Platelets were pelleted (45 S at 14,000 RPM) and sugars were extracted from the pellet using 80% methanol. The samples were heated for 30 minutes at 80° C. […] The amount of trehalose in the platelets was quantified using the anthrone reaction (Umbreit et al., Mamometric and Biochemical Techniques, 5th Edition, 1972). […] Then the samples were cooled on ice and the absorbance was measured at 620 nm on a Perkin Elmer spectrophotometer. The amount of platelet associated trehalose was determined using a standard curve of trehalose.
Quantification of Trehalose and LYCH Concentration. Uptake was calculated for each sample as micrograms of trehalose or LYCH per platelet. The internal trehalose concentration was calculated assuming a platelet radius of 1.2 μm and by assuming that 50% of the platelet volume is taken up by the cytosol (rest is membranes). […]

OC[C@H]1O[C@H](O[C@H]2O[C@H](CO)[C@@H](O)[C@H](O)[C@H]2O)[C@H](O)[C@@H](O)[C@@H]1O [trehalose]
loading efficiency: 61%
